Results are given in words; binding and its absence hold for the method and conditions named. Some binding calls cover weakened binding; strength is not graded here.
Biological target: human CD147-Fc fusion protein (Sino Biological Inc., Cat. 10186-H02H) (human) (UniProt P35613)
Assay: ELISA, hybridoma supernatant on coated wells

B1: LN22R8 (antibody, V domains shown)
VH: QIQLVQSGPELKKPGETVKISCKASGYTFTNYGMNWVKQAPGKGLKWMGWINTYTGEPTYADDFKGRFAFSLETSASTAYLQINNLKNEDTATYFCARGGYGNYGAGAMDYWGQGTSVTVSS
VL: DIQMTQSPSSLSASLGERVSLTCRASLEISGFLSWLQQKPDGTIKRLIYAASILDSGVPKRFSGSRSGSDYSLTISSLESEDFADYYCLQYASYPWTFGGGTKLEIKR
With B1 as the binder, how does the binding read?
Its binding is “binds”.

Reference: patent US20200362033A1
